Results are given in words; binding and its absence hold for the method and conditions named.
Biological target: Ola1p (S. cerevisiae) (UniProt P38219)
Assay: condition: only at temperatures close to 25 °C (10 μM Ola1p); dynamic light scattering; 10 μM (0.5 mg/ml) Ola1p in 20 mM PIPES pH 7.0, 100 mM KCl, 1 mM TCEP; temperature ramp 0.3 °C/min from 20 °C; read at temperatures close to 25 °C; both purified

B1: Ola1p (natural protein, S. cerevisiae, UniProt P38219 1-394, looked up)
chain: MPPKKQVEEKKVLLGRPGNNLKAGIVGLANVGKSTFFQAITRCPLGNPANYPFATIDPEEARVIVPSPRFDKLCEIYKKTASEVPAHLTVYDIAGLTKGASAGEGLGNAFLSHIRSVDSIYQVVRCFDDAEIIHVEGDVDPVRDLEIINQELRLKDIEFAQKALEGAEKIAKRGGQSLEVKQKKEEMDLITKIIKLLESGQRVANHSWTSKEVEIINSMFLLTAKPCIYLINLSERDYIRKKNKHLLRIKEWVDKYSPGDLIIPFSVSLEERLSHMSPEDAEEELKKLQTISALPKIITTMRQKLDLISFFTCGPDEVREWTIRRGTKAPQAAGVIHNDLMNTFILAQVMKCEDVFEYKDDSAIKAAGKLMQKGKDYVVEDGDIIYFRAGAGKN
notes: Ola1p (Obg-like ATPase 1), S. cerevisiae, systematic name Ybr025c; The methods say that the MBP tag was cleaved with Precision protease; also called Ybr025c; MBP-Ola1p (before cleavage); source: insect cells (baculovirus expression system), purified (amylose resin, size-exclusion chromatography); not shown: MBP, N-terminal, cleaved
**Q.** B1 was tested. Which binding did it give?
**A.** Its binding is “no binding”.

Reference: paper PMC8531669, “Quantitative proteomics identifies the universally conserved ATPase Ola1p as a positive regulator of heat shock response in Saccharomyces cerevisiae” (The Journal of Biological Chemistry, 2021)
